The record followed here is PubChem BioAssay AID2685 (National Center for Advancing Translational Sciences (NCATS), 2010).

The test is described as follows: qHTS Assay for Lipid Storage Modulators in Drosophila S3 Cells.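 As to cell number change: cells counted by Cell Tracker Red CMTPX staining in the red channel.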 The settings on record: BODIPY lipid droplet fluorescence, 18-24 h; for cell number change: measured here: cell count max response, cells fed with added oleic acid. In outline: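 Drosophila S3 cells loaded with oleic acid (400 uM, as added) and compounds at several concentrations; lipid droplets imaged by 488-nm laser-scanning cytometry, 500–530 nm intensity and object ratio to cell channel. Percent activity normalized to 20 uM Triacsin C.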
In general terms: In qHTS, concentration-response curves come from the screen itself.

Where [1] appears, read: measured here: cell number channel AC50, cells fed with added oleic acid.
Setting [2] is: measured here: lipid fluorescence (Fed channel) AC50, cells fed with added oleic acid.

Some of the results follow. The main result of the screen is listed elsewhere. These columns were measured beside it and carry no call. Most of these compounds were active or inconclusive in the main read-out, so they are no random draw. Words in brackets tell the shape of the fitted curve; partial curves, single points and poor fits give uncertain potencies.

`O=C(Cc1ccc(Cl)c(Cl)c1)Nc1cccnc1`: the cell number change came to 15.5%. For `CC(NC(=O)c1cccc(S(=O)(=O)N2CCCCCC2)c1)c1ccccc1` (stereo not given), the cell number change was -40.5%. Moreover, the AC50 (usually the midpoint of the concentration-response curve, whichever way the signal moves) under setting [1] is 18.4 µM [falling, single point]. For the same compound, the AC50 under setting [2] is 0.82 µM [falling, full curve]. On to `COC(=O)c1ccc2[nH]c([C@H](C)O)c([C@H](C)O)c2c1`, for which the cell number change turned out to be 18.6%.

In the case of `CSc1ccc(CCNC(=O)CCc2nnc3ccc(N4CCC5(CC4)OCCO5)nn23)cc1`, the cell number change was -14.1%. On to `COc1ccc(C(=O)NC(=S)Nc2ccc(N3CCOCC3)c(Cl)c2)cc1[N+](=O)[O-]`, for which the cell number change is -24.6%. Also, the AC50 under setting [2] was 0.651 µM [falling, single point]. On to `Cc1ccccc1C(=O)Nc1cccc(-c2cn3ccccc3n2)c1`, for which the cell number change was -3.68%. Further, the AC50 under setting [2] is 0.0058 µM [falling, full curve, poor fit]. On to `CCOc1cccc(CN2CCCC(C(=O)Nc3ccc(-c4ccn[nH]4)cc3)C2)c1O` (stereo not given), for which the cell number change was -5.42%. On to `c1cncc(-c2nc(N3CCCCCC3)c3ccccc3n2)c1`, for which the cell number change is -20.5%. Also, the AC50 under setting [2] is 7.31 µM [rising, partial curve].

For the compound `Nc1n[nH]c2ccccc12`, the cell number change is -4.77%. For the same compound, the AC50 under setting [2] is 1.84 µM [falling, partial curve]. On to `O=C(NNC(=O)C1CCN(Cc2ccc(Cl)c(Cl)c2)CC1)c1cccs1`, for which the cell number change is -5.33%. Further, the AC50 under setting [1] was 0.00411 µM [falling, full curve, poor fit]. `CC(C)(C)OC(=O)N1Cc2cc3ccccc3nc2C1CO` (stereo not given): the cell number change is -14.3%.

Take `O=C(C[n+]1cccc(CNC(=O)c2ccc(OC(F)F)cc2)c1)Nc1cccc(C(F)(F)F)c1`: the cell number change was determined as 25.2%. Besides, under setting [1], the AC50 is 7.31 µM [rising, partial curve, poor fit]. As for `CCc1ccc(NC(=O)N(CCOC)C2CCN(C(C)=O)CC2)cc1`, the cell number change was 28.2%. Besides, the AC50 under setting [2] is 4.11 µM [falling, partial curve]. With `COC(=O)c1scc(C#N)c1N/N=C(\C#N)S(=O)(=O)c1ccc(Cl)cc1`, the cell number change was -15.6%. For `COc1cccc(C(=O)N(Cc2ccccc2)Cc2cc3cc4c(cc3[nH]c2=O)OCCO4)c1`, the cell number change came out at 5.83%. The AC50 under setting [2] was 29.1 µM [falling, single point]. As to `COc1cccc(N2CCN(S(=O)(=O)c3ccc4c(c3)N(C(C)=O)CCO4)CC2)c1`, the cell number change was -47.7%. For the same compound, the AC50 under setting [1] was 14.6 µM [falling, single point]. Moreover, the AC50 under setting [2] is 23.1 µM [falling, single point]. Take `Cc1ccc2c(c1)/C(=C/c1ccccc1)C(=O)N2`: the cell number change is -33.8%. Also, the AC50 under setting [1] is 29.1 µM [falling, single point]. In addition, under setting [2], the AC50 was 23.1 µM [falling, single point].

As for `O=C(CCc1c[nH]c2ccccc12)NCCc1ccccc1`, the cell number change was -11.4%. Also, under setting [2], the AC50 is 2.31 µM [rising, partial curve]. In the case of `CCSc1nnc(NC(=O)c2cccnc2)s1`, the cell number change was -7.03%. Besides, the AC50 under setting [2] was 29.1 µM [falling, single point].

Turning to `O=C(NCCCN1CCOCC1)c1cc(-c2ccc(F)cc2)on1`, the cell number change was -7.87%. Besides, the AC50 under setting [1] was 3.66 µM [falling, partial curve]. As for `O=C(Nc1ccc2oc(-c3cccnc3)nc2c1)c1cc2ccccc2o1`, the cell number change was -20%. The AC50 under setting [2] was 0.103 µM [rising, full curve, poor fit]. Consider `CC(C)C(NC(=O)c1c(F)cccc1F)C(=O)NCc1ccc(S(=O)(=O)N2CCOCC2)cc1` (stereo not given), for which the cell number change was -3.37%. On to `COc1cccc(OC)c1OCCN1CCN(C(=O)c2ccco2)CC1`, for which the cell number change was -0.75%. In addition, the AC50 under setting [2] is 6.51 µM [rising, single point].

On to `O=C(Nc1ccc(S(=O)(=O)NCc2ccccc2)cc1)C1CCCCC1`, for which the cell number change turned out to be 7.67%. Besides, the AC50 under setting [2] is 29.1 µM [falling, single point].

As to `NC(=O)c1ccsc1NC(=O)COC(=O)CNC(=O)c1cccc([N+](=O)[O-])c1`, the cell number change was -6.33%. Also, the AC50 under setting [2] was 10.3 µM [falling, partial curve, poor fit]. Turning to `O=C1C2CC=C(Cl)CC2C(=O)N1CCN1CCOCC1` (stereo not given), the cell number change was -4.23%. The AC50 under setting [1] was 0.0291 µM [falling, full curve, poor fit]. Further, under setting [2], the AC50 was 0.651 µM [falling, full curve]. On to `COc1ccc(NC(C)=O)cc1S(=O)(=O)N(C)Cc1c(C)nn(-c2ccccc2)c1C`, for which the cell number change was determined as 18.9%. Besides, under setting [2], the AC50 was 14.6 µM [rising, partial curve, poor fit]. Take `C=C(C)COc1ccc2oc(C)c(C(=O)OCCOC)c2c1`: the cell number change was found to be 4.69%. As for `COc1ccc(C)cc1NC(=O)c1nnn(CCc2ccccc2)c1N`, the cell number change was -9.67%. Moreover, the AC50 under setting [2] is 0.58 µM [falling, single point]. For `Cc1ccc(C)c(NC(=O)CCc2ccc(C)o2)c1`, the cell number change turned out to be 6.3%. Regarding `COc1ccc(OC)c(NC(=O)CC2SC(=Nc3ccccc3)N(CCc3ccccn3)C2=O)c1` (stereo not given), the cell number change was -14.8%. The AC50 under setting [1] was 6.51 µM [falling, single point]. Under setting [2], the AC50 is 2.59 µM [rising, partial curve].

For `CC(=O)c1cccc(NC(=S)NCCc2ccc(Cl)cc2)c1`, the cell number change stood at 29.9%. `CCC(NC(=O)OCc1ccccc1)C(=O)Oc1ccc2ccc(=O)oc2c1` (stereo not given): the cell number change was 11.7%. As to `COc1ccc(CN2CC(=O)N3[C@H]4c5ccc(OC)cc5OC[C@@H]4[C@H](c4ccccc4)[C@]3(C)C2=O)cc1`, the cell number change came to 6.33%. Under setting [2], the AC50 is 0.13 µM [falling, partial curve, poor fit].

Regarding `Cc1ccc(NC(=O)c2sc(N)nc2-c2ccc([N+](=O)[O-])cc2)cc1C`, the cell number change was -26.6%. For the same compound, under setting [2], the AC50 was 29.1 µM [falling, single point]. Regarding `Cc1ccc(-c2c(C#N)c(N)nc3c2CCCCCC3)o1`, the cell number change was found to be 24%. Besides, the AC50 under setting [1] is 0.411 µM [rising, partial curve, poor fit]. `CC(=O)NC(Cc1ccccc1C)C(=O)NC1CCN(C(=O)NCc2ccccc2)CC1` (stereo not given): the cell number change turned out to be 13.3%. For the compound `Cc1c(Br)c([N+](=O)[O-])nn1CC(=O)NC1CCCCCC1`, the cell number change was -19%. Besides, the AC50 under setting [2] was 18.4 µM [falling, single point]. As for `CCN(C(=O)c1ccco1)c1nnc(-c2ccc(OC)cc2)s1`, the cell number change was -30%. Besides, the AC50 under setting [1] is 6.51 µM [falling, partial curve]. For `C/C(=N\N=C1\NC(=O)CC(C(=O)O)S1)c1ccc(F)cc1` (stereo not given), the cell number change was -41.2%. Moreover, the concentration at half-maximal activity (AC50) under setting [1] was 16.4 µM [falling, single point]. Besides, under setting [2], the AC50 is 0.184 µM [falling, full curve, poor fit]. As to `C=CCn1c(SCC(=O)Nc2ccccc2)nc2scc(-c3cccs3)c2c1=O`, under setting [2], the AC50 is 0.146 µM [rising, full curve, poor fit]. Regarding `CCCCCCC(=O)N(O)C1CC(=O)N(c2ccc(C)cc2)C1=O` (stereo not given), the cell number change is -31.4%. Further, the AC50 under setting [1] was 29.1 µM [falling, single point]. Further, the AC50 under setting [2] is 20.6 µM [falling, partial curve]. Turning to `COCCCNC(=S)N1CCN(S(=O)(=O)c2ccc(OC)cc2)CC1`, the cell number change was -0.516%.

On to `COC(=O)CCN1CCC(C(N)=O)CC1`, for which the AC50 under setting [2] is 0.146 µM [falling, full curve, poor fit]. For `CCc1ccc(C=NC23CN4CN(CN(C4)C2)C3)s1`, the cell number change is -141%. Under setting [1], the AC50 was 25.9 µM [falling, partial curve]. Besides, the AC50 under setting [2] was 29.1 µM [falling, partial curve]. Take `CC1CCN(S(=O)(=O)c2ccc(NC(=O)CSc3ncccc3C(=O)O)cc2)CC1`: the cell number change was -16.6%. Further, the AC50 under setting [2] is 3.66 µM [falling, full curve, poor fit]. For the compound `Cc1nnc(SCC(=O)Nc2ccc3c(c2)COC3=O)n1-c1ccccc1`, the cell number change is 4.09%. Moreover, the AC50 under setting [2] is 18.4 µM [falling, single point]. For the compound `Cc1cccc(NC(=O)CSc2nc3nc(C)cc(C)n3n2)c1`, the AC50 was 0.206 µM [falling, full curve, poor fit] under setting [1] and 6.51 µM [falling, single point] under setting [2]. As to `CC(OC(=O)CCN=C1NS(=O)(=O)c2ccccc21)C(=O)Nc1ccc(N(C)C)cc1` (stereo not given), the cell number change is -13.1%. Moreover, under setting [2], the AC50 was 0.82 µM [rising, single point]. In the case of `O=C(O)CCC(=O)NCc1c(Cl)cccc1Sc1ccc(Cl)cc1`, the cell number change is -38.7%. For the same compound, under setting [1], the AC50 was 6.51 µM [falling, full curve, poor fit]. The AC50 under setting [2] is 5.17 µM [falling, full curve]. On to `Cc1ccc(C)c2[nH]c(=O)c(CN(CCN3CCCC3)C(=O)Nc3cccc(Cl)c3)cc12`, for which the AC50 under setting [2] is 1.46 µM [rising, partial curve]. Take `COc1ccc(S(=O)(=O)N2CCC(C(=O)NCCc3ccc4c(c3)OCO4)CC2)cc1`: the cell number change worked out at 11.4%. The AC50 under setting [2] is 0.164 µM [rising, full curve].

`Cc1nn(CC(O)c2ccccc2)c(C)c1Br` (stereo not given): the cell number change was -71%. For the same compound, under setting [1], the AC50 was 5.8 µM [falling, partial curve]. For the same compound, under setting [2], the AC50 is 6.51 µM [falling, single point].

In the case of `Cc1cc(C(=O)CCl)c(C)n1CCc1ccccc1`, the cell number change is -12.6%. For the compound `COC(=O)c1cccc(OC(N)=O)c1`, the cell number change is -0.489%. For the same compound, the AC50 under setting [2] was 4.11 µM [rising, full curve].

For `Cc1ccc2c(c1)c(C)c(C)n2CC(O)Cn1nnc2ccccc21` (stereo not given), the cell number change is -3.14%. Take `CCOc1ncccc1C(=O)Nc1cccc(S(=O)(=O)NC2=NCCC2)c1`: the cell number change was 29.8%. For the same compound, the AC50 under setting [2] was 13 µM [rising, partial curve, poor fit]. For the compound `COc1ccc(-c2nnn(CC(=O)N(CC(=O)NCCC(C)C)c3ccccc3)n2)cc1OC`, the cell number change was -0.276%. Besides, under setting [2], the AC50 was 6.51 µM [falling, single point]. Consider `Cn1c(=O)[nH]c2c(Cl)nccc21`, for which the cell number change was -5.87%. Also, the AC50 under setting [2] is 0.13 µM [falling, full curve, poor fit]. Turning to `O=C(NCC(=O)N1CCN(S(=O)(=O)/C=C/c2ccccc2)CC1)c1ccccc1F`, the cell number change was 47.8%. Further, under setting [1], the AC50 is 29.1 µM [rising, single point]. In addition, the AC50 under setting [2] is 29.1 µM [rising, partial curve]. Turning to `Cc1cc2ncn(CC(O)COC3CCCCC3)c2cc1C` (stereo not given), the cell number change is -24.7%.

With `CC(NC(=O)CNC(=O)c1sc2ccccc2c1Cl)c1ccc(S(N)(=O)=O)cc1` (stereo not given), under setting [2], the AC50 was 2.31 µM [rising, partial curve].
